Reference: the supplement of paper PMC12823440, “Inhibitors supercharge kinase turnover through native proteolytic circuits” (Nature, 2025)
Structures can show the parent of a compound that is named as a salt. Some of the results follow. Hit calls seldom repeat between salt and free forms of one compound.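 Kinases, fused to nanoluciferase, were expressed in K562 cells; luminescence was measured every 4 h from 2 to 18 h as percent of control (DMSO = 100%, positive control = 0%). A time point is decreased if signal falls significantly (2 sigma). Hits were called by the authors by a rule that is not shown; the count of time points alone does not decide it.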

Chains of the proteins cited; added tags and fusions are not shown. Lines headed by an entry give the natural chain unless they say otherwise; changes in a name come on top.
UniProt P07947, whole entry, looked up: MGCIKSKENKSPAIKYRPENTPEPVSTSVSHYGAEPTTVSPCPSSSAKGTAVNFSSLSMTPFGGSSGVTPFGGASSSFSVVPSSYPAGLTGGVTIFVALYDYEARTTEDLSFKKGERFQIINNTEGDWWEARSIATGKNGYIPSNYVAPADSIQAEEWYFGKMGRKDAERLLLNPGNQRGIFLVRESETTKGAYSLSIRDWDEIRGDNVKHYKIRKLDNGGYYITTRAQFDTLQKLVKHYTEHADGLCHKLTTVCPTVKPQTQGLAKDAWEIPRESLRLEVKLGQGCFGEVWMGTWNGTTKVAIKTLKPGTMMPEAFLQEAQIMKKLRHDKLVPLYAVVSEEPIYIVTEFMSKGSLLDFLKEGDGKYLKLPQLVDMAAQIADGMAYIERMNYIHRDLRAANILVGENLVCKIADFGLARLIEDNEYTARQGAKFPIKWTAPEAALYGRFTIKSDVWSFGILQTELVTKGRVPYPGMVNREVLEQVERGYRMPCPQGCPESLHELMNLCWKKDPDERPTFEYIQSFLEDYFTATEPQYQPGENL
UniProt P43403: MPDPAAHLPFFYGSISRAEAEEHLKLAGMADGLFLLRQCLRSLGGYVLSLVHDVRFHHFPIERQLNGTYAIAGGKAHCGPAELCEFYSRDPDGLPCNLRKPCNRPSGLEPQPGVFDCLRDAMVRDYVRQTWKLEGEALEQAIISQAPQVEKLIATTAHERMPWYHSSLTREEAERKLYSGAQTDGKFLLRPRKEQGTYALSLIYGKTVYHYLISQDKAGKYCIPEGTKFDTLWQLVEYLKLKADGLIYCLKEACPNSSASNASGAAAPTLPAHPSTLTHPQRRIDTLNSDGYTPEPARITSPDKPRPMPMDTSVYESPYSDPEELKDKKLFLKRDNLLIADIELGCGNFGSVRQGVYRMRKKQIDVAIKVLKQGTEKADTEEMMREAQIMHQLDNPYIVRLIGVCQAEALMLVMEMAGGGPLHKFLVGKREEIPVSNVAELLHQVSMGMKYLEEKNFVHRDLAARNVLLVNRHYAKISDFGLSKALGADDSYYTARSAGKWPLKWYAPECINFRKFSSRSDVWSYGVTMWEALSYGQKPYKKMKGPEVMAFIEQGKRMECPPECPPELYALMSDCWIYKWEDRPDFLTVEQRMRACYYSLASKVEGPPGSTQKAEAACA
UniProt P11802: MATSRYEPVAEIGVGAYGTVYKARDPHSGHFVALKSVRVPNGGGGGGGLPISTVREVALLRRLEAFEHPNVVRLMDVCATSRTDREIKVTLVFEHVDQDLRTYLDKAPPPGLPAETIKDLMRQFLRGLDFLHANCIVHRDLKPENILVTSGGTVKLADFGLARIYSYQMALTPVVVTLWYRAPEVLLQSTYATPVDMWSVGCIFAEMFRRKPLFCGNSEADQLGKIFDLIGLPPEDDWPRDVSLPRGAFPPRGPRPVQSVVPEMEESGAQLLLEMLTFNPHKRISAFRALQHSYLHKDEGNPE
UniProt P50613: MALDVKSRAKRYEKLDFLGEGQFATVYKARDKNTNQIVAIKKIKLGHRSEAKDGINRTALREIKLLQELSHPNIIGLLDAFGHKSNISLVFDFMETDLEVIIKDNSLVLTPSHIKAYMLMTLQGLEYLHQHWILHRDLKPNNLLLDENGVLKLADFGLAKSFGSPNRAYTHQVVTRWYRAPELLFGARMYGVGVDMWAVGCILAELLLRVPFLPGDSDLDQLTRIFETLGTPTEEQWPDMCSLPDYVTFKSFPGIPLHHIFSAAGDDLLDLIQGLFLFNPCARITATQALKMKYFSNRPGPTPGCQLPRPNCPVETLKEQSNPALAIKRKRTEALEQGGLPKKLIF
UniProt P50750, whole entry: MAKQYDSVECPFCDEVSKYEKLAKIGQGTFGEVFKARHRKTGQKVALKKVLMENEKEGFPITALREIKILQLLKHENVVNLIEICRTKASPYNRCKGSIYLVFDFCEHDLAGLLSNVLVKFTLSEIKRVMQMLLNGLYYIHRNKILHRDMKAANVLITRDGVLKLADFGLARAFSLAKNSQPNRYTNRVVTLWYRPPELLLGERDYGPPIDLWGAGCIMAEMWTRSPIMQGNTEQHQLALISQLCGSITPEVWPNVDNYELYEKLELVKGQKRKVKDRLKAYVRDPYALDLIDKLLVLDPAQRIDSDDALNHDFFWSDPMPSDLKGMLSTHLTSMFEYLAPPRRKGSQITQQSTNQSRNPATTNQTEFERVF

Tests used:
Conditions in all cases: K562; 2-18 h
[1] = biological target: YES1 (UniProt P07947); assay: number of time points (of 5) at which kinase-Nluc abundance scored as decreased, DMSO-normalised (count); higher = more persistent destabilization
[2] = biological target: ZAK (UniProt Q9NYL2); assay: as above
[3] = biological target: ZAP70 (UniProt P43403); assay: as above
[4] = biological target: CDK4 (UniProt P11802); assay: number of time points (of 4; 2 h point missing) at which kinase-Nluc abundance scored as decreased, DMSO-normalised (count); higher = more persistent destabilization
[5] = biological target: CDK7 (UniProt P50613); assay: as above
[6] = biological target: CDK9 (UniProt P50750); assay: as above

| SMILES | number of time points [1] | number of time points [2] | number of time points [3] | number of time points [4] | number of time points [5] | number of time points [6] |
| --- | --- | --- | --- | --- | --- | --- |
| COc1cc(N(C)CCN(C)C)c(N)cc1Nc1nccc(-c2cn(C)c3ccccc23)n1 [Mutated EGFR-IN-1] (10 µM) | 0 | 0 | 0 | 0 | 0 | 0 |
| CC(C)N1CCN(c2ccc(Nc3ncc4cc5n(c4n3)C3(CCCCC3)CNC5=O)nc2)CC1 [Lerociclib (dihydrochloride)] (2 µM) | 0 | 0 | 0 | 0 | 1 | 0 |
| Cc1cc2sc(NC(=O)Cc3ccccc3)nc2cc1Cl (10 µM) | 0 | 0 | 0 | 0 | 0 | 0 |
| Cc1ccc(C(=O)Nc2sc(Nc3ccccc3)nc2C(N)=O)cc1 (10 µM) | 0 | 0 | 0 | 0 | 0 | 0 |
| O=C(N[C@@H](C1CC1)C(F)(F)F)c1cc(-c2cnn3cc(-c4ccc(F)cc4)cnc23)cs1 (10 µM) | 0 | 0 | 0 | 0 | 0 | 0 |
| COc1cc(N2CCOCC2)ccc1Nc1ncc(Cl)c(Nc2ccccc2NS(C)(=O)=O)n1 (2.5 µM) | 0 | 0 | 0 | 0 | 0 | 0 |
| O[C@@H]1CO[C@H]2[C@@H]1OC[C@H]2Oc1nc2nc(-c3ccc(-c4ccccc4)cc3)c(Cl)cc2[nH]1 (10 µM) | 0 | 0 | 0 | 0 | 0 | 0 |
| CC(C)S(=O)(=O)c1ccc2nccc(Nc3ccc4scnc4c3)c2c1 (10 µM) | 0 | 0 | 0 | 0 | 0 | 0 |
| CCOC(=O)N1C/C(=C/c2ccccc2F)C(=O)/C(=C\c2ccccc2F)C1 (2.5 µM) | 0 | 0 | 0 | 0 | 0 | 0 |
| CC(C)=CCc1c(-c2ccc(O)cc2O)oc2c3c(cc(O)c2c1=O)OC(C)(C)C=C3 [Morusin] (2.5 µM) | 0 | 0 | 0 | 0 | 0 | 0 |
| O=C(Nc1nc2ccc(NC(=O)C34CC5CC(CC(C5)C3)C4)cc2s1)c1ccccc1 (10 µM) | 0 | 0 | 0 | 0 | 0 | 0 |
| O=c1[nH]c(C2CCCN2)nc2c1oc1ccc(Cl)cc12 (stereo not given) [XL413 (hydrochloride)] (10 µM) | 0 | 0 | 0 | 0 | 0 | 0 |
| CCN(CC)c1cc2oc(=O)c(-c3nc4ccccc4o3)cc2cc1C (2.5 µM) | 0 | 0 | 0 | 0 | 0 | 0 |
| O=C(Nc1cccc(C(F)(F)F)c1)c1cccc2cc(Oc3cc(CO)ncn3)ccc12 (10 µM) | 0 | 0 | 0 | 0 | 0 | 0 |
| CS(=O)(=O)c1ccc(-c2cnc(N)c(-c3ccc(C(F)(F)F)nc3)c2)cc1 (10 µM) | 0 | 0 | 0 | 0 | 0 | 0 |
| C=C[C@@](C)(/C=C/c1ccc(O)cc1)CCC=C(C)C [Bakuchiol] (10 µM) | 0 | 0 | 0 | 0 | 0 | 0 |
| CCCCCCCCCCCCCCCCOP(=O)([O-])OCC[N+](C)(C)C [Miltefosine] (10 µM) | 0 | 0 | 0 | 0 | 0 | 0 |
| CC(C)=CC(=O)O[C@H]1Cc2cc3ccc(=O)oc3cc2OC1(C)C [Decursin] (10 µM) | 0 | 0 | 0 | 0 | 0 | 0 |

| SMILES | number of time points [1] | number of time points [2] | number of time points [3] | number of time points [4] | number of time points [5] | number of time points [6] |
| --- | --- | --- | --- | --- | --- | --- |
| CC(C)c1cccc(C(C)C)c1N1C(=O)c2ccc(N)cc2C1=O (2.5 µM) | 0 | 0 | 0 | 0 | 0 | 0 |
| Cc1cc(Nc2nc(CC3(C(=O)O)CCN(C(=O)c4cccc(Cl)c4Cl)CC3)ccc2F)n[nH]1 (10 µM) | 1 | 0 | 0 | 0 | 3 | 0 |
| C#Cc1cccc(Nc2ncnc3cc(OC)c(OCCCCCCC(=O)NO)cc23)c1 (2.5 µM) | 0 | 0 | 0 | 0 | 0 | 0 |
| Cc1ccn2c(C(=O)C(=O)c3ccccc3)c(-c3ccccc3)nc2c1 (10 µM) | 0 | 0 | 0 | 0 | 0 | 0 |
| Cc1cnc(-c2ccc(-c3ccc(NC(=O)Nc4cccc(C(F)(F)F)c4)cc3F)c3c2C(=O)NC3)[nH]1 (10 µM) | 0 | 0 | 0 | 0 | 1 | 2 |
| Cn1cc(-c2c[nH]c3ncnc(N4CCOCC4)c23)cc1C#N (10 µM) | 0 | 0 | 0 | 0 | 0 | 0 |
| C=CC(=O)Nc1cccc(-c2cccc3cnc(Nc4ccc(N5CCN(CCO)CC5)c(F)c4F)nc23)c1 [Olafertinib] (2.5 µM) | 0 | 0 | 0 | 0 | 0 | 0 |
| CC(C)(O)[C@H]1CC[C@H](Nc2ccc3ncc(-c4cccc(C(F)(F)F)c4)n3n2)CC1 (10 µM) | 0 | 0 | 0 | 0 | 0 | 0 |
| COc1ccc(/C=C/C(=O)C2(C(=O)/C=C/c3ccc(OC)c(OC)c3)CCCCC2)cc1OC (2.5 µM) | 0 | 0 | 0 | 0 | 1 | 0 |
| C[C@H](NC(=O)[C@H]1NCC[C@@H]1O)c1ccc(-c2noc(CCC3CCCC3)n2)cc1 (10 µM) | 0 | 0 | 0 | 0 | 0 | 0 |
| COc1ccc(S(=O)(=O)NCc2ccc(C(=O)NCCc3ccc(Cl)cn3)cc2)cc1 (10 µM) | 0 | 0 | 0 | 0 | 0 | 0 |
| O=C(Nc1nc(=O)n(Cc2ccc(Cl)cc2)s1)c1ccc(Cl)cc1 (10 µM) | 0 | 0 | 0 | 0 | 0 | 0 |
| CN(C)c1nc2c(Br)c(Br)c(Br)c(Br)c2[nH]1 (10 µM) | 0 | 0 | 0 | 0 | 0 | 0 |
| NC1=NCCN1CC(=O)O [Cyclocreatine] (10 µM) | 0 | 0 | 0 | 0 | 0 | 0 |
| CCN(CC)c1ccc2cc(-c3nc4cc(C)ccc4o3)c(=O)oc2c1 (10 µM) | 0 | 0 | 0 | 0 | 0 | 0 |
| Nc1ncnc2c1c(COc1cccc(Cl)c1)nn2C1CCOCC1 (10 µM) | 0 | 0 | 0 | 0 | 0 | 0 |
| COc1ccc(-c2c(C)nn3c(NCCN4CCOCC4)cc(C)nc23)cc1OC (10 µM) | 0 | 0 | 0 | 0 | 0 | 0 |

Single values from the list:
number of time points [1] with `CN(C)c1nc2c(Br)c(Br)c(Br)c(Br)c2[nH]1` (10 µM) reads 0
number of time points [5] with `C#Cc1cccc(Nc2ncnc3cc(OC)c(OCCCCCCC(=O)NO)cc23)c1` (2.5 µM) reads 0
number of time points [6] with `COc1cc(N2CCOCC2)ccc1Nc1ncc(Cl)c(Nc2ccccc2NS(C)(=O)=O)n1` (2.5 µM) reads 0
